No constants are given. Whether binding was seen depends on the method and setting. Binding can be weak; no strength is given. Sequences can lack the tags named with a protein.

The target in the assay is GST-ZYG-1 PB3 domain fragment (C. elegans). As to the kind of experiment: pull-down; GST-ZYG-1 fragment baits (4.32 mM as printed) on magnetic glutathione beads, blocked with Odyssey blocking buffer; full-length SAS-5 prey (0.2 mM as printed) 1 h at 4 °C; washed with 50 mM Tris pH 8.0, 300 mM NaCl, 5 mM DTT; immunoblot with anti-GST and anti-SAS-5; GST alone as negative control; both purified. (In general: A western blot detects proteins with antibodies after separation by electrophoresis.)

B1: SAS-5::His6, full-length, refolded in vitro (protein, UniProt Q20010 1-404)
chain: MGNNYDDLPCSIYFKKPTVQEFVDQPRVFEDSEVPAFQEVLQLPQERTKPPVPSTQPIVAAVEVAKKKSCLSAPKPRKEPPSHPALRQKTVAFGKTVNVSQTVEGTSRNSKKVLASTMSAQNTTTTEEQAAENWRDAMKTELQTIRTEIQEETARRQEELNAQNLVKMQELMSNFFQKITIPKQQAIEPVEKDKENFHESPRQSRQQKPASKIASAREVIKRDGVIPPEALTIIEQRLRSDPMFRQQIDNVLADAECDANRAAYSPPPPMSEVRYGSGVNPALMRETLTVERSIRYDNGLASIDSRQWTNERRDNRAPDSYRTYEPDQPCHSLYQKGQSISYYPSEAAGKTTARNNRTGYYVEDSSDHEEDVVVNKRGQNYHEQAVPETPAERERRIREKYARRK
For B1, the binding result is reported as “binds”.

The values above are taken from paper PMC11169420, “The kinase ZYG-1 phosphorylates the cartwheel protein SAS-5 to drive centriole assembly in C. elegans” (EMBO Reports, 2024).
